This note sets out measurements from article PMC6731595, “The anti-parasitic agent suramin and several of its analogues are inhibitors of the DNA binding protein Mcm10” (Open Biology, 2019).

For the data set, the target named is T1, xMcm10-ID (Xenopus laevis) (UniProt Q5EAW4).
T1 sequence (looked up): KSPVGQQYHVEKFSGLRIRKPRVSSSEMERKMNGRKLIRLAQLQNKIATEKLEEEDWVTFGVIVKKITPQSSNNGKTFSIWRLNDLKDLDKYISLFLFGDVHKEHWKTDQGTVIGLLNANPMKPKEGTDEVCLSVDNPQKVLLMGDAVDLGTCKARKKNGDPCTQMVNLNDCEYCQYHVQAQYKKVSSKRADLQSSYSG
As to the kind of experiment: fluorescence polarization. Particulars: LOPAC pilot screen, Z' 0.61; FP: 20 mM Tris-HCl, 100 mM NaCl, 5% glycerol, 0.01% Triton, pH 7.5, RT 60 min, 12.5 nM probe (0.1% DMSO in HTS); recombinant protein; residues 229-427; label: 3'-6FAM; single-stranded DNA.

The exact form of at least one protein or probe is not confirmed. At least one verdict was read from the data and is not stated in words by the source. Where a protein sequence is shown, tags need not be part of it.

As for ATGGTAGGCA [3'-6FAM 10-mer], the binding result is reported as “binds”.
